Experimental data: article PMC6895203, “Conformational pathway provides unique sensitivity to a synaptic mGluR” (Nature Communications, 2019)
Results are given in words; binding and its absence hold for the method and conditions named. Binding seen in cells or lysates may run through a third protein. Some entries that bind do so weakly or less than the wild type. Blank lines part the entries; values can stand above or below the substance they belong to.

By UniProt entry, the sequences of proteins in these tests, tags left out. Where a name states a change or a piece, a line headed by the entry shows the natural chain unless it says otherwise. Chains listed by the source or under a name are the forms on record and can include a tag or linker. Residues count along the entry.
SNAP-mGluR7 (N-terminally SNAP-tagged metabotropic glutamate receptor 7) (P35400, residues 35-915): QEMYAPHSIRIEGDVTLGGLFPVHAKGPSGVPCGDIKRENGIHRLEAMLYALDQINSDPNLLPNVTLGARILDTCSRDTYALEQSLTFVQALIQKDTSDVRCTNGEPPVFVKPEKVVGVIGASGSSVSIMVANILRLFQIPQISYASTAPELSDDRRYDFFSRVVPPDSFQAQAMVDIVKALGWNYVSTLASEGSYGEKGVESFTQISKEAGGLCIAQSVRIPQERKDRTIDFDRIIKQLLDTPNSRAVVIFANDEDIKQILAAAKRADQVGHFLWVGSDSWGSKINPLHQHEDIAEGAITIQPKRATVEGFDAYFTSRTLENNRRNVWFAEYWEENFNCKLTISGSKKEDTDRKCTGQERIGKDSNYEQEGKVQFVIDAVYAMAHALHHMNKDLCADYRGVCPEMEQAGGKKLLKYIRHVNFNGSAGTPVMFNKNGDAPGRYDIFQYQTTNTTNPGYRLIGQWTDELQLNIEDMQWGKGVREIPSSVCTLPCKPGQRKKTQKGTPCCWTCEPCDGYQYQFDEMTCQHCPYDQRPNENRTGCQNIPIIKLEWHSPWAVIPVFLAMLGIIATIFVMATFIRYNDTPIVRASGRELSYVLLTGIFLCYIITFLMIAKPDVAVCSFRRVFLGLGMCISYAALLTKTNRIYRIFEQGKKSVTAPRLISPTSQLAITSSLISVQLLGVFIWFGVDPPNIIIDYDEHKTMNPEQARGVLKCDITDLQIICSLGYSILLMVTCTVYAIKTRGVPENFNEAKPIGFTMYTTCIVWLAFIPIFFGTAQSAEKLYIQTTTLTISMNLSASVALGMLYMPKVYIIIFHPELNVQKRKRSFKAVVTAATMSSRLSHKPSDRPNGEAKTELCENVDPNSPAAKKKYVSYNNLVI
SNAP-mGluR7(N74K) (P35400, form named): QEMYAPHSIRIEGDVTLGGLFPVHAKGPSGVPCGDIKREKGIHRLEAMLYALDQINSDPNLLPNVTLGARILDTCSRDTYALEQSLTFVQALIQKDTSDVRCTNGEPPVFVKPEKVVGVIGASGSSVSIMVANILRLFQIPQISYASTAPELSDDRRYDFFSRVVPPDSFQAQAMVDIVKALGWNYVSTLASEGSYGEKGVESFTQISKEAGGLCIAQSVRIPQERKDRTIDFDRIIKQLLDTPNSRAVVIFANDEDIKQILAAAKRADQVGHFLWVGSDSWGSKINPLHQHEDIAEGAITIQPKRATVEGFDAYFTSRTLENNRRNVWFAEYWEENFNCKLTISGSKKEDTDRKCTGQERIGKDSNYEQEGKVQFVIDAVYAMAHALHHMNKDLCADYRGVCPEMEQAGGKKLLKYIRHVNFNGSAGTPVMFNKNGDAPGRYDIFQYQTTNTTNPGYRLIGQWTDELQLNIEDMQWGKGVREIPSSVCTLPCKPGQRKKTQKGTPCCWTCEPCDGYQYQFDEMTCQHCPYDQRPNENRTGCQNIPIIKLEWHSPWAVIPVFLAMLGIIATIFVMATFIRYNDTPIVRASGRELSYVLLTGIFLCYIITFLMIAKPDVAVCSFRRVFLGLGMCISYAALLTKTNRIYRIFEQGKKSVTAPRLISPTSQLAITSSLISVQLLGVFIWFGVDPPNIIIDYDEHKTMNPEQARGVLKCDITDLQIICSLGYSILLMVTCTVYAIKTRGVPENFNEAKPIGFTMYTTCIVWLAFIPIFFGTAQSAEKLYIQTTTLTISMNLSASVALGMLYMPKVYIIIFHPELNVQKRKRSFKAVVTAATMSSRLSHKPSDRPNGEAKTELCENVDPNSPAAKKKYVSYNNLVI
mGluR2 (endogenous, rat hippocampus) (P31421, residues 19-872): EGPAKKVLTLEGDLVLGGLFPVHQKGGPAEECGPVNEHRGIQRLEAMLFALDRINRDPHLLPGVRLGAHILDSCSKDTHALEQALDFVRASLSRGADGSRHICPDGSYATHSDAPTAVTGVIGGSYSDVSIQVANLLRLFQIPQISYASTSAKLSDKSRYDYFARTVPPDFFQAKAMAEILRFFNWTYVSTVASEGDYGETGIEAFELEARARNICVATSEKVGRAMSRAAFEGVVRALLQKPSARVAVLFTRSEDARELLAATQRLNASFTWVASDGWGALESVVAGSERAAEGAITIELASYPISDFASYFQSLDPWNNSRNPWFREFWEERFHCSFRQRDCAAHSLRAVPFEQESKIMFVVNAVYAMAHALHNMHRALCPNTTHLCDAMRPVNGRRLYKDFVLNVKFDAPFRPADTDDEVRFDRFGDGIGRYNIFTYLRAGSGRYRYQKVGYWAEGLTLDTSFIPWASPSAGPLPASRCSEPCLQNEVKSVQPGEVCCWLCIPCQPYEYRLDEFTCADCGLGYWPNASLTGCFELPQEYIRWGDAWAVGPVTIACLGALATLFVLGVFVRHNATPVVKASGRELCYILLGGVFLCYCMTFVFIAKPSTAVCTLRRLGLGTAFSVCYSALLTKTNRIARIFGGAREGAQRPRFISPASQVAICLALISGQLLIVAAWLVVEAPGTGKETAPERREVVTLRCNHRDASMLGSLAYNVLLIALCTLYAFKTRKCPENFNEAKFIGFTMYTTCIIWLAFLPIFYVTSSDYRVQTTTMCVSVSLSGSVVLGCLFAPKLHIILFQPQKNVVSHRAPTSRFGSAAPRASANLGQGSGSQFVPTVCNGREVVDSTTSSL
SNAP-mGluR2(YADA) (P31421, form named): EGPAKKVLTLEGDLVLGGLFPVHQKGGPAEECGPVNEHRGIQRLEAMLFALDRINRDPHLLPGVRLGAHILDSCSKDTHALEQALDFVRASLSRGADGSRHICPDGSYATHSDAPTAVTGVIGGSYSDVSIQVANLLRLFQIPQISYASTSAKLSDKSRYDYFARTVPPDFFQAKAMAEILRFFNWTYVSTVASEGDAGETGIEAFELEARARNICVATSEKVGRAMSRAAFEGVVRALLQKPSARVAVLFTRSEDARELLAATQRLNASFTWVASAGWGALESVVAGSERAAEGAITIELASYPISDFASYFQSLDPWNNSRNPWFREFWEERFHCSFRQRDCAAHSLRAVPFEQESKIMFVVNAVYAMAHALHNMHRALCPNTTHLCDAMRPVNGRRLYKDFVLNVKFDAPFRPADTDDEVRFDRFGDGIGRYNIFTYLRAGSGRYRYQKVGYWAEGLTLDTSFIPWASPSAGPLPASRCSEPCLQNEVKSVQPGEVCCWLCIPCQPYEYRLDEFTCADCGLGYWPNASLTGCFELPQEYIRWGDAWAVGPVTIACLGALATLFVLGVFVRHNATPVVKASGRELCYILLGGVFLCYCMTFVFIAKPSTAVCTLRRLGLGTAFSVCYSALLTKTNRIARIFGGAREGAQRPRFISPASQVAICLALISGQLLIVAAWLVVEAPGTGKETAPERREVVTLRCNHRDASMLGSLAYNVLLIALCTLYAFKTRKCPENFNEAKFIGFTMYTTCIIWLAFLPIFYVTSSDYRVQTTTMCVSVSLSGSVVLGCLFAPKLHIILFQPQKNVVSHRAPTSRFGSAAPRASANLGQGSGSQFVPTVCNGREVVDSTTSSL
UniProt P31423, residues 33-912: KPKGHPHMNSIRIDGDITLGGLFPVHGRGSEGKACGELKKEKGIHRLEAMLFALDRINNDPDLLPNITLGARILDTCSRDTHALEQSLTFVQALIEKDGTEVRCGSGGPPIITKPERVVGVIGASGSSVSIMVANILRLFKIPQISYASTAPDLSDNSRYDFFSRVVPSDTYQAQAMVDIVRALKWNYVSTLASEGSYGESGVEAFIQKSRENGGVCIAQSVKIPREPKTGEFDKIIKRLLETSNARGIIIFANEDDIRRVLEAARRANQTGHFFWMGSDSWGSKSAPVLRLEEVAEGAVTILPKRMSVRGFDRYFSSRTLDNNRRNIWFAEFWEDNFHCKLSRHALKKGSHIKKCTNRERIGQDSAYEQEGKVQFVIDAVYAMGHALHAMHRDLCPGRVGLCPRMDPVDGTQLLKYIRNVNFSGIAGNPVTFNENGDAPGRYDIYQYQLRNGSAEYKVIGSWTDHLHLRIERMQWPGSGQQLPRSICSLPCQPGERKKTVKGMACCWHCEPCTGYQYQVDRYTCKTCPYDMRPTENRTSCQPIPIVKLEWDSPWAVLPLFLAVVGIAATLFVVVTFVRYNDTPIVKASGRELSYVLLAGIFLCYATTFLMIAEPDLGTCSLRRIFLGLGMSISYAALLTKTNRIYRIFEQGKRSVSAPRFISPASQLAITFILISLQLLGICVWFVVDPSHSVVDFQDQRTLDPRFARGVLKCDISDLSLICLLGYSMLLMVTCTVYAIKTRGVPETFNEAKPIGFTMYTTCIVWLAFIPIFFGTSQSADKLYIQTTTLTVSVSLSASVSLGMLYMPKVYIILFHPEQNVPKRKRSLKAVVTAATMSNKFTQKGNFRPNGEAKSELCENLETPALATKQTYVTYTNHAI
UniProt P31422, residues 23-879: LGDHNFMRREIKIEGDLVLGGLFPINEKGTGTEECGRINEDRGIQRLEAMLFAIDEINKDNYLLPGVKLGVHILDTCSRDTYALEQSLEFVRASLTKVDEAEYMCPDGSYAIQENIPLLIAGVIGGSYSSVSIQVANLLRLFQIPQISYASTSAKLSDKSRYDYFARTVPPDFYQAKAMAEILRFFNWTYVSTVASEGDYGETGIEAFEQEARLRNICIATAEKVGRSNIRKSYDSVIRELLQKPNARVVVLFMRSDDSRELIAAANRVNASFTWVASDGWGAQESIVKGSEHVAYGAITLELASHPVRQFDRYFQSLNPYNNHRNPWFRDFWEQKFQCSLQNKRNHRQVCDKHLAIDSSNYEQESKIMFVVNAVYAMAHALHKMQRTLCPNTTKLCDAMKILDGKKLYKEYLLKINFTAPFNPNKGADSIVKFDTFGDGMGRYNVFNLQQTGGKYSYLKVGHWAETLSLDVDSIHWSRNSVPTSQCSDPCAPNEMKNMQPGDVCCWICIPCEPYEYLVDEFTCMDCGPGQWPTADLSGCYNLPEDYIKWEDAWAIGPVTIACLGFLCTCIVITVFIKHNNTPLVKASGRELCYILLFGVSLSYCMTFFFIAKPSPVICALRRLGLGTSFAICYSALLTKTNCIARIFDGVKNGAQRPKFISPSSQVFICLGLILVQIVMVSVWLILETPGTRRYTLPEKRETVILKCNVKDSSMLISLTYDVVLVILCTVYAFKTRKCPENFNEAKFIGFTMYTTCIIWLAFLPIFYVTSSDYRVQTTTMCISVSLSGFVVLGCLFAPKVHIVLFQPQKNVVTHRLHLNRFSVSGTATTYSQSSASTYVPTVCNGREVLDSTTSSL

Tests used:
[1] = biological target: SNAP-mGluR7 (N-terminally SNAP-tagged metabotropic glutamate receptor 7) (rat) (UniProt P35400); experiment: FRET or BRET; live-cell ensemble FRET between SNAP/CLIP tags of the two subunits, labelled with donor and acceptor dyes, on transfected HEK293T cells; confocal microscope, images at 1 Hz; extracellular solution pH 7.4; glutamate perfused
[2] = biological target: SNAP-mGluR2(YADA) (rat) (UniProt P31421); experiment: FRET or BRET; single-molecule FRET (TIRF) between the tags of the two subunits of dimers formed in HEK293T cells, lysed in 1.2% IGEPAL, immune-purified from diluted lysate by anti-mGluR2, anti-mGluR7 or anti-HA antibody on PEG-passivated coverslips; imaging buffer pH 7.4 with 0.04% IGEPAL; traces with single-donor and single-acceptor photobleaching
[3] = biological target: SNAP-mGluR7 (N-terminally SNAP-tagged metabotropic glutamate receptor 7) (rat) (UniProt P35400); experiment: as above
[4] = biological target: SNAP-mGluR7(N74K) (rat) (UniProt P35400); experiment: as above
[5] = biological target: SNAP-tagged mGluR4 (rat) (UniProt P31423); experiment: FRET or BRET; live-cell ensemble FRET between SNAP/CLIP tags of the two subunits, labelled with donor and acceptor dyes, on transfected HEK293T cells; confocal microscope, images at 1 Hz; extracellular solution pH 7.4; glutamate perfused
[6] = biological target: mGluR7 (endogenous, rat brain) (rat (endogenous in hippocampus and cortex)) (UniProt P35400); experiment: co-IP; anti-mGluR7 antibody on protein A/G magnetic beads, overnight at 4 °C, from solubilised (1.5% IGEPAL) membrane fractions of rat hippocampus or cortex; western blot

binding [1]: binds | binding [2]: binds | binding [3]: binds
Substance: CLIP-mGluR2 (from UniProt P31421 19-872) (receptor)

binding [1]: binds | binding [3]: binds
Substance: SNAP-mGluR7 (N-terminally SNAP-tagged metabotropic glutamate receptor 7) (from UniProt P35400 35-915)

binding [4]: binds
Substance: SNAP-mGluR7(N74K) (from UniProt P35400 35-915) (receptor)

binding [5]: binds
Substance: SNAP-tagged mGluR4 (from UniProt P31423 33-912) (receptor)

binding [6]: binds
Substance: mGluR2 (endogenous, rat hippocampus) (from UniProt P31421 19-872) (receptor)

binding [6]: binds
Substance: mGluR3 (endogenous, rat cortex) (from UniProt P31422 23-879) (receptor)

binding [3]: binds
Substance: mGluR3 subunit of the mGluR3/7 heterodimer (tagged for smFRET) (from UniProt P31422 23-879) (receptor)
